Experimental data published in PMC6949223.
No constants are given. Whether binding was seen depends on the method and setting. In cells and extracts the contact can be indirect. Here binding means that the protein was enriched with, or labelled near, the bait; the list need not be complete.

Protein sequences, listed by entry. Tags and fused reporters are not part of them.
UniProt Q9H5K3: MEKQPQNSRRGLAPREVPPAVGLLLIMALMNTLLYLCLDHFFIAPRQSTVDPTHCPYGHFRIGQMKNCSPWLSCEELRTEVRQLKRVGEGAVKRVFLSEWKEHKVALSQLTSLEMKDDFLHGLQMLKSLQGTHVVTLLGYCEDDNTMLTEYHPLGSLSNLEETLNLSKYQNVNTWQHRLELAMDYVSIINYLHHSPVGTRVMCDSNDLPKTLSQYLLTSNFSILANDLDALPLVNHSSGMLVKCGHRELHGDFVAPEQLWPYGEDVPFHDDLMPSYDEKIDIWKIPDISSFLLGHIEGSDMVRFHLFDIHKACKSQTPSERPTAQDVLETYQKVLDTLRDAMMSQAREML

Target: SGK196 as immunoprecipitated for mass spectrometry (human) (UniProt Q9H5K3)
Test: affinity purification with mass spectrometry; SGK196 immunoprecipitation from cell lysate (50 mM Tris-HCl pH 7.4, 150 mM NaCl, 1% NP-40, 0.1% SDS, 1 mM EDTA; Protein A/G magnetic beads, overnight), SDS-PAGE, mass spectrometry; cells not given

B1: RPN1 (ribophorin I) found in the SGK196 precipitates (protein, UniProt P04843 24-607)
chain: ASSEAPPLINEDVKRTVDLSSHLAKVTAEVVLAHLGGGSTSRATSFLLALEPELEARLAHLGVQVKGEDEEENNLEVRETKIKGKSGRFFTVKLPVALDPGAKISVIVETVYTHVLHPYPTQITQSEKQFVVFEGNHYFYSPYPTKTQTMRVKLASRNVESYTKLGNPTRSEDLLDYGPFRDVPAYSQDTFKVHYENNSPFLTITSMTRVIEVSHWGNIAVEENVDLKHTGAVLKGPFSRYDYQRQPDSGISSIRSFKTILPAAAQDVYYRDEIGNVSTSHLLILDDSVEMEIRPRFPLFGGWKTHYIVGYNLPSYEYLYNLGDQYALKMRFVDHVFDEQVIDSLTVKIILPEGAKNIEIDSPYEISRAPDELHYTYLDTFGRPVIVAYKKNLVEQHIQDIVVHYTFNKVLMLQEPLLVVAAFYILFFTVIIYVRLDFSITKDPAAEARMKVACITEQVLTLVNKRIGLYRHFDETVNRYKQSRDISTLNSGKKSLETEHKALTSEIALLQSRLKTEGSDLCDRVSEMQKLDAQVKELVLKSAVEAERLVAGKLKKDTYIENEKLISGKRQELVTKIDHILDAL
  binding: binds
